Experimental data reported in patent US20070054916A1, “Aryl nitrogen-containing bicyclic compounds and methods of use” (Amgen Inc., priority 2004, published 2007).
Some of these results come from one statement about several compounds together.

Sequences of proteins named here, by UniProt entry; tags and fusion partners are left off. Residues count along the entry.
UniProt Q02763, 23-1124: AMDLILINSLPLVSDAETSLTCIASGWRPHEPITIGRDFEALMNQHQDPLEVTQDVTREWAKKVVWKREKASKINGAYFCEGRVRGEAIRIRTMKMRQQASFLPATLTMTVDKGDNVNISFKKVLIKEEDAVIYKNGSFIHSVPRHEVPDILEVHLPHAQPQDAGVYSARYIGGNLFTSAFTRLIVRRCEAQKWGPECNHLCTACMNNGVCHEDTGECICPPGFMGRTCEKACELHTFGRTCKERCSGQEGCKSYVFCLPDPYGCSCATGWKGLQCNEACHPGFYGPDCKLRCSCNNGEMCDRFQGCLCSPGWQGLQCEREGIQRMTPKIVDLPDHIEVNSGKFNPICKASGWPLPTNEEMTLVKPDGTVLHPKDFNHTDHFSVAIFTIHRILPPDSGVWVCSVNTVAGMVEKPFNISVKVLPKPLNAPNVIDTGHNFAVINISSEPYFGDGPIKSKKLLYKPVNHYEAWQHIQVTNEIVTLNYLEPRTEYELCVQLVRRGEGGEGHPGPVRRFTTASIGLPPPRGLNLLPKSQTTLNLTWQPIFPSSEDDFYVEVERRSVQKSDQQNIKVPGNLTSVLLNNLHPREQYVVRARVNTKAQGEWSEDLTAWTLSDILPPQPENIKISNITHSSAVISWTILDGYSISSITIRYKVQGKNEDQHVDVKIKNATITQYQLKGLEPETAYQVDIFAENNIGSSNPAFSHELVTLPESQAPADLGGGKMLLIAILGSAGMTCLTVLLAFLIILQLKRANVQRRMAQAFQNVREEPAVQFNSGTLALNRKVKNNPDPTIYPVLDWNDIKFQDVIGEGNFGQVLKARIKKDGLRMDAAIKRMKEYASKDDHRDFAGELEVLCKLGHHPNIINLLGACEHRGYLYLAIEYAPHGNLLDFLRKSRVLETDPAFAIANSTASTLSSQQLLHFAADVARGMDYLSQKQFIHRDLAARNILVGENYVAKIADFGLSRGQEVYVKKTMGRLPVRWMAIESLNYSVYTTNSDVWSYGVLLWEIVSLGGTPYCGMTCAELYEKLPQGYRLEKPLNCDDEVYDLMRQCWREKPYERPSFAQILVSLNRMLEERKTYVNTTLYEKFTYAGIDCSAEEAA

target: Tie-2 kinase enzyme (Homo sapiens, UniProt Q02763); experiment: Tie-2 Homogenous Time Resolved Flourescent (HTRF) kinase assay; type: biochemical; details: read-out: IC50's for the inhibition of Tie-2 as measured by the HTRF assay

| Structure (SMILES) | IC50 |
| --- | --- |
| Cc1ccc(C(=O)Nc2ccc(C(F)(F)F)cc2)cc1-c1ccc2nc(N(C)C)ncc2c1 [Example 319, 3-(2-(dimethylamino)-6-quinazolinyl)-4-methyl-N-(4-(trifluoromethyl)phenyl)benzamide] | ≤ 1000 nM |
| COc1ccc(C(C)(C)C)cc1NC(=O)c1ccc(C)c(-c2ccc3nc(N)ncc3c2)c1 [Example 320, 3-(2-amino-6-quinazolinyl)-N-(5-(1,1-dimethylethyl)-2-(methyloxy)phenyl)-4-methylbenzamide] | ≤ 1000 nM |
| Cc1ccc(C(=O)Nc2cc(C(C)(C)C)on2)cc1-c1ccc2nc(N)ncc2c1 [Example 322, 3-(2-amino-6-quinazolinyl)-N-(5-(1,1-dimethylethyl)-3-isoxazolyl)-4-methylbenzamide] | ≤ 1000 nM |
| Cc1ccc(C(=O)Nc2cc(C(C)(C)C)cc(C(C)(C)C)c2)cc1-c1ccc2nc(N)ncc2c1 [Example 324, 3-(2-amino-6-quinazolinyl)-N-(3,5-bis(1,1-dimethylethyl)phenyl)-4-methylbenzamide] | ≤ 1000 nM |
| Cc1ccc(C(=O)Nc2ccncc2)cc1-c1ccc2nc(N)ncc2c1 [Example 325, 3-(2-amino-6-quinazolinyl)-4-methyl-N-(4-pyridinyl)benzamide] | ≤ 1000 nM |
| Cc1ccc(C(=O)Nc2ccccn2)cc1-c1ccc2nc(N)ncc2c1 [Example 326, 3-(2-amino-6-quinazolinyl)-4-methyl-N-(2-pyridinyl)benzamide] | ≤ 1000 nM |
| Cc1ccc(C(=O)Nc2nccs2)cc1-c1ccc2nc(N)ncc2c1 [Example 328, 3-(2-amino-6-quinazolinyl)-4-methyl-N-(1,3-thiazol-2-yl)benzamide] | ≤ 1000 nM |
| Cc1ccc(C(=O)Nc2cnc3ccccc3c2)cc1-c1ccc2nc(N)ncc2c1 [Example 332, 3-(2-amino-6-quinazolinyl)-4-methyl-N-(3-quinolinyl)benzamide] | ≤ 1000 nM |
| Cc1ccc(C(=O)Nc2ccc3ncccc3c2)cc1-c1ccc2nc(N)ncc2c1 [Example 333, 3-(2-amino-6-quinazolinyl)-4-methyl-N-(6-quinolinyl)benzamide] | ≤ 1000 nM |
| Cc1ccc(C(=O)Nc2ccnc(Cl)c2)cc1-c1ccc2nc(N)ncc2c1 [Example 334, 3-(2-amino-6-quinazolinyl)-N-(2-chloro-4-pyridinyl)-4-methylbenzamide] | ≤ 1000 nM |
| Cc1ccc(C(=O)Nc2ccc3ccccc3c2)cc1-c1ccc2nc(N)ncc2c1 [Example 335, 3-(2-amino-6-quinazolinyl)-4-methyl-N-(2-naphthalenyl) benzamide] | ≤ 1000 nM |
| Cc1ccc(C(=O)NC2=NCCS2)cc1-c1ccc2nc(N)ncc2c1 [Example 336, 3-(2-amino-6-quinazolinyl)-N-(4,5-dihydro-1,3-thiazol-2-yl)-4-methylbenzamide] | ≤ 1000 nM |
| Cc1ccnc(NC(=O)c2ccc(C)c(-c3ccc4nc(N)ncc4c3)c2)c1 [Example 339, 3-(2-amino-6-quinazolinyl)-4-methyl-N-(4-methyl-2-pyridinyl)benzamide] | ≤ 1000 nM |
| CCc1ccnc(NC(=O)c2ccc(C)c(-c3ccc4nc(N)ncc4c3)c2)c1 [Example 340, 3-(2-amino-6-quinazolinyl)-N-(4-ethyl-2-pyridinyl)-4-methylbenzamide] | ≤ 1000 nM |
| Cc1csc(NC(=O)c2ccc(C)c(-c3ccc4nc(N)ncc4c3)c2)n1 [Example 341, 3-(2-amino-6-quinazolinyl)-4-methyl-N-(4-thiazol-2-yl)benzamide] | ≤ 1000 nM |
| Cc1ccc(C(=O)Nc2nc3cc(Cl)ccc3o2)cc1-c1ccc2nc(N)ncc2c1 [Example 342, 3-(2-amino-6-quinazolinyl)-N-(5-chloro-1,3-benzoxazol-2-yl)-4-methylbenzamide] | ≤ 1000 nM |
| Cc1ccc(C(=O)Nc2cc(C(F)(F)F)ccn2)cc1-c1ccc2nc(N)ncc2c1 [Example 345, 3-(2-amino-6-quinazolinyl)-4-methyl-N-(4-(trifluoromethyl)-2-pyridinyl)benzamide] | ≤ 1000 nM |
| COc1ncccc1NC(=O)c1ccc(C)c(-c2ccc3nc(N)ncc3c2)c1 [Example 347, 3-(2-amino-6-quinazolinyl)-4-methyl-N-(2-(methyloxy)-3-pyridinyl)benzamide] | ≤ 1000 nM |
| Cc1ccc(C(=O)Nc2nc3c(C)cccc3s2)cc1-c1ccc2nc(N)ncc2c1 [Example 348, 3-(2-amino-6-quinazolinyl)-4-methyl-N-(4-methyl-1,3-benzothiazol-2-yl)benzamide] | ≤ 1000 nM |
| CCOc1ccc2nc(NC(=O)c3ccc(C)c(-c4ccc5nc(N)ncc5c4)c3)sc2c1 [Example 349, 3-(2-amino-6-quinazolinyl)-N-1,3-(6-(ethyloxy)-benzothiazol-2-yl)-4-methylbenzamide] | ≤ 1000 nM |
| Cc1ccc(C(=O)Nc2nc3ccc(F)cc3s2)cc1-c1ccc2nc(N)ncc2c1 [Example 351, 3-(2-amino-6-quinazolinyl)-N-(6-fluoro-1,3-benzothiazol-2-yl)-4-methylbenzamide] | ≤ 1000 nM |

| Structure (SMILES) | IC50 |
| --- | --- |
| CC(=O)c1sccc1NC(=O)c1ccc(C)c(-c2ccc3nc(N)ncc3c2)c1 [Example 355, N-(2-acetyl-3-thienyl)-3-(2-amino-6-quinazolinyl)-4-methylbenzamide] | ≤ 1000 nM |
| Cc1ccc(C(=O)Nc2ncc(Br)s2)cc1-c1ccc2nc(N)ncc2c1 [Example 356, 3-(2-amino-6-quinazolinyl)-N-(5-bromo-1,3-thiazol-2-yl)-4-methylbenzamide] | ≤ 1000 nM |
| Cc1ccc(C(=O)Nc2cccc(C(F)(F)F)n2)cc1-c1ccc2nc(N)ncc2c1 [Example 359, 3-(2-amino-6-quinazolinyl)-4-methyl-N-(6-(trifluoromethyl)-2-pyridinyl)benzamide] | ≤ 1000 nM |
| Cc1ccc(C(=O)Nc2ccc(C(F)(F)F)cn2)cc1-c1ccc2nc(N)ncc2c1 [Example 360, 3-(2-amino-6-quinazolinyl)-4-methyl-N-(5-(trifluoromethyl)-2-pyridinyl)benzamide] | ≤ 1000 nM |
| Cc1ccc(C(=O)Nc2ncccc2O)cc1-c1ccc2nc(N)ncc2c1 [Example 361, 3-(2-amino-6-quinazolinyl)-N-(3-hydroxy-2-pyridinyl)-4-methylbenzamide] | ≤ 1000 nM |
| CCN(CC)CCOc1cccnc1NC(=O)c1ccc(C)c(-c2ccc3nc(N)ncc3c2)c1 [Example 363, 3-(2-amino-6-quinazolinyl)-N-(3-((2-(diethylamino)ethyl)oxy)-2-pyridinyl)-4-methylbenzamide] | ≤ 1000 nM |
| COc1ccc(-c2ccccc2)cc1NC(=O)c1ccc(C)c(-c2ccc3nc(N)ncc3c2)c1 [Example 364, 3-(2-amino-6-quinazolinyl)-4-methyl-N-(4-(methyloxy)-1,1′-biphenyl-3-yl)benzamide] | ≤ 1000 nM |
| Cc1ccc(C(F)(F)F)cc1NC(=O)c1ccc(C)c(-c2ccc3nc(N)ncc3c2)c1 [Example 365, 3-(2-amino-6-quinazolinyl)-4-methyl-N-(2-methyl-5-(trifluoromethyl)phenyl)benzamide] | ≤ 1000 nM |
| Cc1ccc(C(=O)Nc2cc(C(F)(F)F)ccc2N(C)[C@H]2CCN(C)C2)cc1-c1ccc2ncnc(N)c2c1 [Example 366] | ≤ 1000 nM |
| Cc1ccc(C(=O)Nc2cc(C(F)(F)F)ccc2N(C)CCCN(C)C)cc1-c1ccc2ncnc(N)c2c1 [Example 367, 3-(4-amino-6-quinazolinyl)-N-(2-((3-(dimethylamino)propyl)(methyl)amino)-5-(trifluoromethyl)phenyl)-4-methylbenzamide] | ≤ 1000 nM |
| Cc1ccc(C(=O)Nc2cc(C(F)(F)F)ccc2N2CCCCC2)cc1-c1ccc2ncnc(N)c2c1 [Example 368, 3-(4-amino-6-quinazolinyl)-4-methyl-N-(2-(1-piperidinyl)-5-(trifluoromethyl)phenyl)benzamide] | ≤ 1000 nM |
| Cc1ccc(C(=O)Nc2cccc(C(F)(F)F)c2C)cc1-c1ccc2nc(N)ncc2c1 [Example 369, 3-(2-amino-6-quinazolinyl)-4-methyl-N-(2-methyl-3-(trifluoromethyl)phenyl)benzamide] | ≤ 1000 nM |
| Cc1ccc(C(=O)Nc2cccc(OC(F)(F)F)c2)cc1-c1ccc2nc(N)ncc2c1 [Example 370, 3-(2-amino-6-quinazolinyl)-4-methyl-N-(3-((trifluoromethyl)oxy)phenyl)benzamide] | ≤ 1000 nM |
| Cc1ccc(C(=O)Nc2ccc(Cl)nc2)cc1-c1ccc2nc(N)ncc2c1 [Example 371, 3-(2-amino-6-quinazolinyl)-N-(6-chloro-3-pyridinyl)-4-methylbenzamide] | ≤ 1000 nM |
| Cc1ccc(C(=O)Nc2ccc(C#CC3CC3)c(C(F)(F)F)c2)cc1-c1ccc2nc(N)ncc2c1 [Example 372, 3-(2-amino-6-quinazolinyl)-N-(4-(cyclopropylethynyl)-3-(trifluoromethyl)phenyl)-4-methylbenzamide] | ≤ 1000 nM |
| Cc1ccc(C(=O)Nc2ccc(Br)c(C(F)(F)F)c2)cc1-c1ccc2nc(N)ncc2c1 [Example 373, 3-(2-amino-6-quinazolinyl)-N-(4-bromo-3-(trifluoromethyl)phenyl)-4-methylbenzamide] | ≤ 1000 nM |
| Cc1ccc(C(=O)Nc2ccc(C#Cc3ccccc3)c(C(F)(F)F)c2)cc1-c1ccc2nc(N)ncc2c1 [Example 374, 3-(2-amino-6-quinazolinyl)-4-methyl-N-(4-(phenylethynyl)-3-(trifluoromethyl)phenyl)benzamide] | ≤ 1000 nM |
| Cc1ccc(C(=O)Nc2cccc(C(F)(F)F)c2)cc1-c1ccc2ncnc(N)c2c1 [Example 377, 3-(4-amino-6-quinazolinyl)-4-methyl-N-(3-(trifluoromethyl)phenyl)benzamide] | ≤ 1000 nM |
| Cc1ccc(C(=O)Nc2cccc(OC(F)(F)F)c2)cc1-c1ccc2ncnc(N)c2c1 [Example 396, 3-(4-amino-6-quinazolinyl)-4-methyl-N-(3-((trifluoromethyl)oxy)phenyl)ben zamide] | ≤ 1000 nM |
| Cc1ccc(C(=O)Nc2cccc(-c3ccccc3)c2)cc1-c1ccc2ncnc(N)c2c1 [Example 401, 3-(4-amino-6-quinazolinyl)-N-(1,1′-biphenyl-3-yl)-4-methylbenzamide] | ≤ 1000 nM |
| COc1ccc(C(C)(C)C)cc1NC(=O)c1ccc(C)c(-c2ccc3ncnc(N)c3c2)c1 [Example 402, 3-(4-amino-6-quinazolinyl)-N-(5-(1,1-dimethylethyl)-2-(methyloxy)phenyl)-4-methylbenzamide] | ≤ 1000 nM |
